Results are given in words; binding and its absence hold for the method and conditions named.
Columns and labels:
Assay in all cases: Biacore 8K SPR, antibody over immobilised protein
Soy Trypsin Inhibitor = target: Soy Trypsin Inhibitor
Lysozyme = target: Lysozyme
β-defensin = target: β-defensin

B1: TMEB762 (antibody, human IgG4 S228P, kappa, F234A L235A, V domains shown)
VH: EVQLLESGGGLVQPGGSLRLSCAASGFTFSSYSMSWVRQAPGKGLEWVSVISGSGGFTDYADSVKGRFTISRDNSKNTLYLQMNSLRAEDTAVYYCARMPLNSPHDYWGQGTLVTVSS
VL: DIQMTQSPSSLSASVGDRVTITCRASQGIRNDLGWYQQKPGKAPKLLIYAASSLQSGVPSRFSGSGSGTDFTLTISSLQPEDFATYYCLQDYNYPLTFGGGTKVEIKR
With B1 the binding (Soy Trypsin Inhibitor) was “no binding (tested: response unit ≥100 predicts high risks)”, the binding (Lysozyme) was “no binding (tested: response unit ≥100 predicts high risks)” and the binding (β-defensin) was “no binding (tested: response unit ≥100 predicts high risks)”.

B2: CD3B376 (antibody, human IgG4 S228P, lambda, F234A L235A, V domains shown)
VH: QVQLQQSGPRLVRPSQTLSLTCAISGDSVFNNNAAWSWIRQSPSRGLEWLGRTYYRSKWLYDYAVSVKSRITVNPDTSRNQFTLQLNSVTPEDTALYYCARGYSSSFDYWGQGTLVTVSS
VL: QSALTQPASVSGSPGQSITISCTGTSSNIGTYKFVSWYQQHPDKAPKVLLYEVSKRPSGVSSRFSGSKSGNTASLTISGLQAEDQADYHCVSYAGSGTLLFGGGTKLTVLG
In the case of B2, the binding (Soy Trypsin Inhibitor) is reported as “no binding (tested: response unit ≥100 predicts high risks)”, the binding (Lysozyme) is reported as “no binding (tested: response unit ≥100 predicts high risks)” and the binding (β-defensin) is reported as “no binding (tested: response unit ≥100 predicts high risks)”.

Reference: patent publication US20230322924A1
